According to article PMC10357015:
Results are given in words; binding and its absence hold for the method and conditions named. Binding seen in cells or lysates may run through a third protein.

Chains of the proteins cited; added tags and fusions are not shown. Lines headed by an entry give the natural chain unless they say otherwise; changes in a name come on top. A line that says so, or that is headed by a name, gives the form on record, which may keep a tag or linker.
Myc-Tau^WT (P10636, form named): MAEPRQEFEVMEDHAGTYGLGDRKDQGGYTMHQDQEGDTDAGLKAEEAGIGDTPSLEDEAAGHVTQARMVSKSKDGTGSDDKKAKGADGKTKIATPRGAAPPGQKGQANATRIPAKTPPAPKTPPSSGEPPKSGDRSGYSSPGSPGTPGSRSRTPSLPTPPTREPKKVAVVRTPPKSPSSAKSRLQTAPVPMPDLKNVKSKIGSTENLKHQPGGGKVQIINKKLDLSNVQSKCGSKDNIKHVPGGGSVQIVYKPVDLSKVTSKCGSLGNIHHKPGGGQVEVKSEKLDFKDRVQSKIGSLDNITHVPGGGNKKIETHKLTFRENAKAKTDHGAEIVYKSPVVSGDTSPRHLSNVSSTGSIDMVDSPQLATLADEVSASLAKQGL

Molecular target: Myc-Tau^WT (human) (UniProt P10636)
Experiment: co-IP; Myc-Trap beads (Chromotek) on mitochondria isolated from HeLaGAL cells over-producing Myc-tagged proteins, gently lysed with 4.5 g GDN/g protein in IP buffer (0.1 M Tris-HCl, 0.15 M NaCl, phospholipids, protease inhibitors); overnight at 4°C; eluted proteins analysed by western blot

B1: TOM40 (protein, UniProt O96008 1-361)
chain: MGNVLAASSPPAGPPPPPAPALVGLPPPPPSPPGFTLPPLGGSLGAGTSTSRSSERTPGAATASASGAAEDGACGCLPNPGTFEECHRKCKELFPIQMEGVKLTVNKGLSNHFQVNHTVALSTIGESNYHFGVTYVGTKQLSPTEAFPVLVGDMDNSGSLNAQVIHQLGPGLRSKMAIQTQQSKFVNWQVDGEYRGSDFTAAVTLGNPDVLVGSGILVAHYLQSITPCLALGGELVYHRRPGEEGTVMSLAGKYTLNNWLATVTLGQAGMHATYYHKASDQLQVGVEFEASTRMQDTSVSFGYQLDLPKANLLFKGSVDSNWIVGATLEKKLPPLPLTLALGAFLNHRKNKFQCGFGLTIG
B1 was tested. Which binding did it give?
Its binding is “no binding”.
